Data from the supplement of paper PMC10849652.
Some of the results follow. Residues, ends and D or L forms follow the SMILES beside them. *: point of attachment. Cbz = O=C(OCc1ccccc1)*

By UniProt entry, the sequences of proteins in these tests, tags left out. Where a name states a change or a piece, a line headed by the entry shows the natural chain unless it says otherwise.
UniProt P34810: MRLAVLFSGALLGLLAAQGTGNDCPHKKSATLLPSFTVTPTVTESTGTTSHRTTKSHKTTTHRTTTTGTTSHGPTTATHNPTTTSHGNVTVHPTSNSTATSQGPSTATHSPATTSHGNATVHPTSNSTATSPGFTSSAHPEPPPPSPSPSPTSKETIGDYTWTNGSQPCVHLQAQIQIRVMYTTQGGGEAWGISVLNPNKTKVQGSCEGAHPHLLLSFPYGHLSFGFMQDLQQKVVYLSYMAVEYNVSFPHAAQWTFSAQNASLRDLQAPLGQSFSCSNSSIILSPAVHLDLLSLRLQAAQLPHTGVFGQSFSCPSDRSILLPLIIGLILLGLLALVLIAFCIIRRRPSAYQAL
UniProt P24385, whole entry, looked up: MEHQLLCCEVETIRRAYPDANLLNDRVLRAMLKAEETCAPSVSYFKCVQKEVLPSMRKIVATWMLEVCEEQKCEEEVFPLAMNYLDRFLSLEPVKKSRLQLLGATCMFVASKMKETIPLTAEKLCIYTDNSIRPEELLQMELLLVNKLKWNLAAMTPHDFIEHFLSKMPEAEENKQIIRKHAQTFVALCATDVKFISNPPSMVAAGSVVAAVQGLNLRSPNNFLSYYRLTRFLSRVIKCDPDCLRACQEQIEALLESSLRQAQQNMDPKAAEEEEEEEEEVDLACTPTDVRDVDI
UniProt O60583: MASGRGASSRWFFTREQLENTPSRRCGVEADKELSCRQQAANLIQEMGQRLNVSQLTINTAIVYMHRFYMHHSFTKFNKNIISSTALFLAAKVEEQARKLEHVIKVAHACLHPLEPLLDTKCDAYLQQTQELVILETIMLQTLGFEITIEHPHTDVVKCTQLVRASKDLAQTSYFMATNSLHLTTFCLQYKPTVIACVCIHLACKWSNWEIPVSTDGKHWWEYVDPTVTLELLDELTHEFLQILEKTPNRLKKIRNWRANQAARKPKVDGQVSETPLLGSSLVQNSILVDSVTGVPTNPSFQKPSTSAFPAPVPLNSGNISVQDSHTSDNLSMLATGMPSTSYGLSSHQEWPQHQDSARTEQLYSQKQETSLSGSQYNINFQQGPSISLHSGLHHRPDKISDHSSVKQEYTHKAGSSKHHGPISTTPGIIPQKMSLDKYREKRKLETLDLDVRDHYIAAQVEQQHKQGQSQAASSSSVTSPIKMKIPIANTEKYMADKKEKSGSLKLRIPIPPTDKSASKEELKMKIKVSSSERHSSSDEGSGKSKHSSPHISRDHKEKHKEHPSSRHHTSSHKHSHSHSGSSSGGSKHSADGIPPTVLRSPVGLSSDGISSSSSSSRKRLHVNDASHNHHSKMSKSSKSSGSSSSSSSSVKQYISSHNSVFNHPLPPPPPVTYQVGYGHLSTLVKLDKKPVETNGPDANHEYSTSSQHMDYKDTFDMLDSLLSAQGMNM
UniProt Q9UIB8: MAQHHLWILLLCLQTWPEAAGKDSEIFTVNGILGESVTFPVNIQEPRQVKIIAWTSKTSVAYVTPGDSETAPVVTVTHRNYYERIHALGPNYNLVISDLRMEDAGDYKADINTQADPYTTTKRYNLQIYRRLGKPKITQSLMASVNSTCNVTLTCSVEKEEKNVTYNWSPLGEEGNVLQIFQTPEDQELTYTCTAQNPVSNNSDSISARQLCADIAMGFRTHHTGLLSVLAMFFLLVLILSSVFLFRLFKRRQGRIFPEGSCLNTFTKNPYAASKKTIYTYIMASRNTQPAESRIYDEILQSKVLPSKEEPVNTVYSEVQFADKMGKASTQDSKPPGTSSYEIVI
UniProt P27701: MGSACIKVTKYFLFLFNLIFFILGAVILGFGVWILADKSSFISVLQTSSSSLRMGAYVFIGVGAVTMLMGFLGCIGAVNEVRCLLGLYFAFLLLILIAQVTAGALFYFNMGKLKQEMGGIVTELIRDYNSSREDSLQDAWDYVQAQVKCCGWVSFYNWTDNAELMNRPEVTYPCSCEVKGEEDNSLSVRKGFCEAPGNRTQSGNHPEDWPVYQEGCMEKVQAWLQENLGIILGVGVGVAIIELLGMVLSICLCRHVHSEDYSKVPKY
UniProt P30307: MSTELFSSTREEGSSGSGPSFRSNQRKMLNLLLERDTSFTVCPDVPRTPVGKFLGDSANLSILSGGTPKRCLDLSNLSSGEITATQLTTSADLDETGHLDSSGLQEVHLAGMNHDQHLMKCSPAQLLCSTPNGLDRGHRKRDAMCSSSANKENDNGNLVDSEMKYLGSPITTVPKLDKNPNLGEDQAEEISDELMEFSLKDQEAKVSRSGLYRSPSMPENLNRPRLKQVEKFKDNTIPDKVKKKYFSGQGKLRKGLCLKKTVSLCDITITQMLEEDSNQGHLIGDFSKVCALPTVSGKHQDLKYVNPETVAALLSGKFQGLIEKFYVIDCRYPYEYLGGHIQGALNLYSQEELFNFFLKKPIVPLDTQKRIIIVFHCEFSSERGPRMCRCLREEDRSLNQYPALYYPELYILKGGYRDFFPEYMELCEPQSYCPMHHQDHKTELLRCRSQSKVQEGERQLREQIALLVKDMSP
UniProt Q15834: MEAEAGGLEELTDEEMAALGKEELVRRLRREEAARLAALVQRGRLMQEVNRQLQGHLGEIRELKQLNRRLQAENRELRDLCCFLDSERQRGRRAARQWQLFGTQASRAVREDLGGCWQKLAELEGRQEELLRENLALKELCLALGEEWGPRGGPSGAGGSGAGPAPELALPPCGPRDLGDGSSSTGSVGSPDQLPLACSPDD
UniProt P11049: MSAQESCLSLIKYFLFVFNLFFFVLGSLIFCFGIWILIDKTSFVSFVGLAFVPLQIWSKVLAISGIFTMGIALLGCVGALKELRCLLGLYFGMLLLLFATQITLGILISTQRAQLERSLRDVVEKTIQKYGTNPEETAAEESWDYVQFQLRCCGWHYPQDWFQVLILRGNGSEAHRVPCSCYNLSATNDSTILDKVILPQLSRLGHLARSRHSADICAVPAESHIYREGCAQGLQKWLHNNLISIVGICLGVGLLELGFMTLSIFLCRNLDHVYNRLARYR
UniProt P20138, whole entry, looked up: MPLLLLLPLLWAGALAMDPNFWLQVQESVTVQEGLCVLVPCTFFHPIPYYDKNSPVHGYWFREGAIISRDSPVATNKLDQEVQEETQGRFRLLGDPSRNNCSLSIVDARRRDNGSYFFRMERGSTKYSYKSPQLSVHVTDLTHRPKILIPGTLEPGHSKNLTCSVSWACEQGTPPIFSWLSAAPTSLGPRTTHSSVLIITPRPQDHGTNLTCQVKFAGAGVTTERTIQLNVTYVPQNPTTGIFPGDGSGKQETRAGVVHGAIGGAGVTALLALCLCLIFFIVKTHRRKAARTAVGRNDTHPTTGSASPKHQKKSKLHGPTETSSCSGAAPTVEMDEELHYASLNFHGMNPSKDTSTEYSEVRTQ
UniProt Q92526, whole entry, looked up: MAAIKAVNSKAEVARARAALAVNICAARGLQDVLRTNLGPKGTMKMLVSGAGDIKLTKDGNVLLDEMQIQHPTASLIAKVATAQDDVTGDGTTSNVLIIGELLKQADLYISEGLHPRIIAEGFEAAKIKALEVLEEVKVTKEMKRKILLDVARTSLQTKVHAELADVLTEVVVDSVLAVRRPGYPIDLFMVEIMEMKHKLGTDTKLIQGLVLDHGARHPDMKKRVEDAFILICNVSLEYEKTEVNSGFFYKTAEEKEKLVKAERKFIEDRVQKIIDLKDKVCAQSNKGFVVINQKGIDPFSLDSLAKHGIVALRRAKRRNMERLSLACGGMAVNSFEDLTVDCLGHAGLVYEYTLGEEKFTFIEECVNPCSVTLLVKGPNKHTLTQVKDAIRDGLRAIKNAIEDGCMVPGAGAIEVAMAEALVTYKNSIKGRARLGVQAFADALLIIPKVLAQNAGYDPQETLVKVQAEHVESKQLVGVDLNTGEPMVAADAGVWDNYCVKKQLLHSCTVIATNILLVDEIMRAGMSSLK
UniProt Q6YHK3: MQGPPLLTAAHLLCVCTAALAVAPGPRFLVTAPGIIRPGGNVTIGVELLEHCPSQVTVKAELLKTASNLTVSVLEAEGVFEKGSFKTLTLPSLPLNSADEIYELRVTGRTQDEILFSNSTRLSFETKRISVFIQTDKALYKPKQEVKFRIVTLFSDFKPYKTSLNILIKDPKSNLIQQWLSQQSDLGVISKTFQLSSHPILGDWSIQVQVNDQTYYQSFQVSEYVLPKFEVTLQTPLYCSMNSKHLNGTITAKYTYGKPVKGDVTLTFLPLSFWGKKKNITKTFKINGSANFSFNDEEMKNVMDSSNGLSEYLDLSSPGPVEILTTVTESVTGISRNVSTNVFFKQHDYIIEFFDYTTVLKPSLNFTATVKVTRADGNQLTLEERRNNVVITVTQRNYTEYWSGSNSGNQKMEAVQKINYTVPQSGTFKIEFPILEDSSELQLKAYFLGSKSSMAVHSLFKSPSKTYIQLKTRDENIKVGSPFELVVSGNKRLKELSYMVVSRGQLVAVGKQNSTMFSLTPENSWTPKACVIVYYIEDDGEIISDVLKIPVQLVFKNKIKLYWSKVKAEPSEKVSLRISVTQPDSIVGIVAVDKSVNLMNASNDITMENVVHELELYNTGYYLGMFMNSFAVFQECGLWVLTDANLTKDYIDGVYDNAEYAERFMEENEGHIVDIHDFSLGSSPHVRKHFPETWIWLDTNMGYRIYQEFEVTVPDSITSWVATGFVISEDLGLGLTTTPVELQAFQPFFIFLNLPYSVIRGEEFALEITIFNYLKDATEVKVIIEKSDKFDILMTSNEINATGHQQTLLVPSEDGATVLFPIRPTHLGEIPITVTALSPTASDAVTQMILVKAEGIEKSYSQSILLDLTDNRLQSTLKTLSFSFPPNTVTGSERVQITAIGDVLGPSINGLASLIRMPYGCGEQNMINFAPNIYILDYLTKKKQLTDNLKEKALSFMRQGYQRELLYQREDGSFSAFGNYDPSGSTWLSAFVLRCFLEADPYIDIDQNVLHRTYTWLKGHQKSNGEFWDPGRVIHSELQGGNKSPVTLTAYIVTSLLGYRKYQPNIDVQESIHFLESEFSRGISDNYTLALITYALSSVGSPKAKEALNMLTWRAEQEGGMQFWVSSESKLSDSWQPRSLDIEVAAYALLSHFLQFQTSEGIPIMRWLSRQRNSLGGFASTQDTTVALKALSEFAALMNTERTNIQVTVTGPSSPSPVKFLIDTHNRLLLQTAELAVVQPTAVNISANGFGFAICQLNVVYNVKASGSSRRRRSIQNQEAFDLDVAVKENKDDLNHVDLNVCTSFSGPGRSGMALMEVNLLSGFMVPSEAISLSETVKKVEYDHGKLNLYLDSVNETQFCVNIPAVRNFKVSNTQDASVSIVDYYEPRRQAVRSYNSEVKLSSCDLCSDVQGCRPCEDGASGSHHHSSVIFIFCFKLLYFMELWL
UniProt P55211: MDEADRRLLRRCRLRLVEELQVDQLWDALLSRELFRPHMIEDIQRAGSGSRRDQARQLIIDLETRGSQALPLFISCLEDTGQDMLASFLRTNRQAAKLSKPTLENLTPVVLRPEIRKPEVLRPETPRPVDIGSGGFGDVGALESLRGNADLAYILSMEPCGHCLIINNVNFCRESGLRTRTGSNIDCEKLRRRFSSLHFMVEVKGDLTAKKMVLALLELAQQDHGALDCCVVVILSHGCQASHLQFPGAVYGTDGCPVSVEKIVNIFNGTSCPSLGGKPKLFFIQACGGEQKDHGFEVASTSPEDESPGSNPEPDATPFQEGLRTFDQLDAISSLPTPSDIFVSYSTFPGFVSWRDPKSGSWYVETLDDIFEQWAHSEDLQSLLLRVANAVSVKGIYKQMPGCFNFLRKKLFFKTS
UniProt Q96S94: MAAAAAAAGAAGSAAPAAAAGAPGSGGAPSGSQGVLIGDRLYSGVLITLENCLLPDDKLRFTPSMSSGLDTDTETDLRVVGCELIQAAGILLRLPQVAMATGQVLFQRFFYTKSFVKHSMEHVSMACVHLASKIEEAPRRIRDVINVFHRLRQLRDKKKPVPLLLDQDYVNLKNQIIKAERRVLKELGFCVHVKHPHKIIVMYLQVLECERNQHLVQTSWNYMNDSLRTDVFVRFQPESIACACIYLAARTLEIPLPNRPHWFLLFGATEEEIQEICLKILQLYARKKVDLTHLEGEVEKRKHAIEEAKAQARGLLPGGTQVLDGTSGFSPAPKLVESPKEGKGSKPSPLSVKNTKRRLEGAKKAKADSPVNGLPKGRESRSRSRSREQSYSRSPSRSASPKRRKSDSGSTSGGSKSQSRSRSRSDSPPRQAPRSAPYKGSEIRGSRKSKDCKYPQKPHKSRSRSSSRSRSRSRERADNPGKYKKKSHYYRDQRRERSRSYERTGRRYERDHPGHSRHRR
UniProt Q9BUN5: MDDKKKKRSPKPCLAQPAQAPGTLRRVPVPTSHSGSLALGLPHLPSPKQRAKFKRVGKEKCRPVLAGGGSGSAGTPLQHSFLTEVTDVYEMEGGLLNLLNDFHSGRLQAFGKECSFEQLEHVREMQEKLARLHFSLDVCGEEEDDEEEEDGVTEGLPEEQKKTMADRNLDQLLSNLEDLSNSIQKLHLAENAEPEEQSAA

What was measured:
Test in all cases: log2 fold change, soluble protein after heating vs DMSO (PISA); higher = thermal stabilisation; K562 cells, 10 uM, 30 min; active = over 0.2 and 3.5 SD of the protein, either way, in both replicates (recomputed)
ibrutinib = compound: C=CC(=O)N1CCC[C@@H](n2nc(-c3ccc(Oc4ccccc4)cc3)c3c(N)ncnc32)C1 [ibrutinib]
In short: (§1)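 K562 cells at 2×10^6 cells/mL were given 10 μM compound for 30 min. Aliquots then went through 3 min of heating across 48°C-58°C, were pooled, and were extracted in PBS with 0.5% NP-40 at 4°C, and the supernatant after 21,000xg for 90 min was quantified by TMTpro 16plex LC-MS/MS with channel sums equalised. Thermal stability relative to control samples, from duplicates, is given as log2 fold change.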

[1] = compound: CC(C)C1=C2N=C(C=C(N2N=C1)NCC3=CC=CC=C3)NCCCCCCN
In short: as §1

[2] = compound: CC1=C(C(CC(=O)N1)C2=CC=C(C=C2)C(F)(F)F)C(=O)NC3=C(C=C4C(=C3)C=NN4)F
In short: as §1

[3] = compound: CC1=C(C=C(C=C1)NC(=O)C2=CC(=CC=C2)C(C)(C)C#N)NC3=CC4=C(C=C3)N=CN(C4=O)C
In short: as §1

vemurafenib = compound: CCCS(=O)(=O)Nc1ccc(F)c(C(=O)c2c[nH]c3ncc(-c4ccc(Cl)cc4)cc23)c1F [vemurafenib]
In short: as §1

[4] = compound: CCCc1cc(C)[nH]c(=O)c1CNC(=O)c1cc(-c2ccnc(N3CCN(C)CC3)c2)cc2c1cnn2C(C)C
In short: as §1

givinostat = compound: CCN(CC)Cc1ccc2cc(COC(=O)Nc3ccc(C(=O)NO)cc3)ccc2c1 [givinostat]
In short: as §1

barasertib = compound: CCN(CCCOc1ccc2c(Nc3cc(CC(=O)Nc4cccc(F)c4)[nH]n3)ncnc2c1)CCOP(=O)(O)O [barasertib]
In short: as §1

ralimetinib = compound: CC(C)(C)Cn1c(N)nc2ccc(-c3[nH]c(C(C)(C)C)nc3-c3ccc(F)cc3)nc21 [ralimetinib]
In short: as §1

[5] = compound: CC(C)C[C@@H](C=O)NC(=O)[C@H](CC(C)C)NC(=O)[C@H](CC(C)C)NC(=O)OCc1ccccc1
In short: as §1

[6] = compound: CC1=C(C=C(C=C1)NC(=O)C2=CC(=CC=C2)N(C)C)NC(=O)C3=CC=C(C=C3)O
In short: as §1

[7] = compound: CC(=O)c1cnc2ccc(-c3cc(Cl)c(O)c(Cl)c3)nc2c1N[C@H]1CC[C@H](CN(C)C)CC1
In short: as §1

[8] = compound: CC(C)(O)CC(=O)NCCn1ccc2ncnc(Nc3ccc(Oc4cccc(C(F)(F)F)c4)c(Cl)c3)c21
In short: as §1

[9] = compound: CC1=C(C2=C(C=C1)C(=O)C3=CC=CC=C3N2CCCN)C
In short: as §1

[10] = compound: CC1=CC=C(C=C1)SC2=C3C=C(SC3=CN=C2)C(=O)N
In short: as §1

Nexturastat A = compound: CCCCN(Cc1ccc(C(=O)NO)cc1)C(=O)Nc1ccccc1 [Nexturastat A]
In short: as §1

[11] = compound: CCCS(=O)(=O)Nc1ccc(F)c(C(=O)c2c[nH]c3ncc(Cl)cc23)c1F
In short: as §1

IRAK-1-4 Inhibitor I = compound: C1COCCN1CCN2C3=CC=CC=C3N=C2NC(=O)C4=CC(=CC=C4)[N+](=O)[O-] [IRAK-1-4 Inhibitor I]
In short: as §1

pinometostat = compound: CC(C)N(C[C@H]1O[C@@H](n2cnc3c(N)ncnc32)[C@H](O)[C@@H]1O)[C@H]1C[C@@H](CCc2nc3cc(C(C)(C)C)ccc3[nH]2)C1 [pinometostat]
In short: as §1

[12] = compound: CC1=NC(=CC=C1)C2=C(N=C(N2)C(C)(C)C)C3=CC4=NC=CN=C4C=C3
In short: as §1

Measured: log2 fold change

CCDC186 (UniProt Q7Z3E2)
inactive: ibrutinib 0.049 | [1] 0.108 | [2] -0.04 | [3] -0.248 | vemurafenib 0.156 | [4] 0.125 | givinostat 0.258 | barasertib -0.106

CD68 (UniProt P34810)
active: [1] -0.535
inactive: ibrutinib 0.057 | [3] 0.037 | [4] -0.06 | givinostat -0.091 | barasertib -0.313

CCND1 (UniProt P24385)
inactive: ralimetinib 0.145 | [5] 0.141 | [3] -0.211 | [6] 0.04

CCNT2 (UniProt O60583)
inactive: ralimetinib 0.191 | [8] 0.059 | [5] 0.116 | [9] -0.062 | [3] 0.092 | [6] 0.042 | [10] -0.057 | Nexturastat A 0.348 | [11] -0.031 | [4] 0.211
active: [7] -0.797

CD80 (UniProt P33681)
inactive: [7] 0.204 | ralimetinib 0.008 | [1] 0.093 | [5] 0.013 | [2] 0.013 | [9] 0.018 | [3] 0.104 | [6] -0.104 | [10] -0.009 | [11] 0.024 | [4] -0.111 | givinostat -0.168

CD84 (UniProt Q9UIB8)
inactive: [7] -0.166 | [8] 0.068 | [1] 0.024 | [9] 0.233 | [3] -0.181 | Nexturastat A 0.096 | givinostat 0.006

CCDC66 (UniProt A2RUB6)
inactive: [8] -0.193 | [2] -0.021 | Nexturastat A 0.095 | [4] 0.086

CCDC71L isoform 2 (UniProt Q8N9Z2)
inactive: ibrutinib -0.156 | [8] -0.028 | [1] -0.069 | [9] 0.042 | [3] 0.1 | Nexturastat A -0.209 | givinostat 0.403 | barasertib 0.132

CD82 (UniProt P27701)
inactive: ibrutinib -0.024 | ralimetinib -0.172 | [8] -0.152 | [1] 0.145 | [5] 0.124 | [2] 0.053 | [3] 0.02 | [6] 0.098 | Nexturastat A 0.03 | [4] -0.155 | givinostat 0.091 | barasertib 0.021

CASP7 isoform 3 (UniProt P55210)
inactive: ibrutinib -0.005 | [8] -0.003 | [1] 0.035 | Nexturastat A 0.255 | givinostat -0.005 | barasertib -0.249

CCNE1 (UniProt P24864)
inactive: ibrutinib 0.013 | [7] -0.134 | ralimetinib -0.004 | [8] 0.108 | [1] 0.251 | [5] 0.031 | [9] -0.226 | [6] 0.063 | [10] 0.024 | Nexturastat A 0.164 | vemurafenib -0.054 | [11] 0.021 | givinostat -0.009 | barasertib 0.033

CCND3 (UniProt P30281)
inactive: ibrutinib -0.063 | [7] 0.078 | ralimetinib -0.076 | [8] 0 | [1] -0.303 | [5] 0.341 | [9] -0.088 | [6] 0.046 | [10] 0.063 | Nexturastat A -0.004 | vemurafenib -0.077 | [11] -0.028 | [4] -0.062 | givinostat 0.021 | barasertib 0.079

CD276 (UniProt Q5ZPR3)
inactive: IRAK-1-4 Inhibitor I -0.193 | ibrutinib 0.048 | pinometostat 0.013 | [12] -0.256 | barasertib 0.054

CDC25C (UniProt P30307)
inactive: [7] -0.094 | [8] 0.16 | [2] 0.022 | [9] 0.103 | Nexturastat A 0.157 | [4] 0.092

CCDC85B (UniProt Q15834)
inactive: ibrutinib 0.088 | [7] -0.045 | [1] -0.078 | [9] -0.088 | [3] 0.115 | [10] -0.05 | vemurafenib -0.093 | [11] -0.212 | [4] -0.087 | givinostat 0.062 | barasertib -0.013

Ten consecutive entries out of the list so far:
CCNT2 (UniProt O60583)
inactive: ralimetinib 0.191 | [8] 0.059 | [5] 0.116 | [9] -0.062 | [3] 0.092 | [6] 0.042 | [10] -0.057 | Nexturastat A 0.348 | [11] -0.031 | [4] 0.211
active: [7] -0.797

CD80 (UniProt P33681)
inactive: [7] 0.204 | ralimetinib 0.008 | [1] 0.093 | [5] 0.013 | [2] 0.013 | [9] 0.018 | [3] 0.104 | [6] -0.104 | [10] -0.009 | [11] 0.024 | [4] -0.111 | givinostat -0.168

CD84 (UniProt Q9UIB8)
inactive: [7] -0.166 | [8] 0.068 | [1] 0.024 | [9] 0.233 | [3] -0.181 | Nexturastat A 0.096 | givinostat 0.006

CCDC66 (UniProt A2RUB6)
inactive: [8] -0.193 | [2] -0.021 | Nexturastat A 0.095 | [4] 0.086

CCDC71L isoform 2 (UniProt Q8N9Z2)
inactive: ibrutinib -0.156 | [8] -0.028 | [1] -0.069 | [9] 0.042 | [3] 0.1 | Nexturastat A -0.209 | givinostat 0.403 | barasertib 0.132

CD82 (UniProt P27701)
inactive: ibrutinib -0.024 | ralimetinib -0.172 | [8] -0.152 | [1] 0.145 | [5] 0.124 | [2] 0.053 | [3] 0.02 | [6] 0.098 | Nexturastat A 0.03 | [4] -0.155 | givinostat 0.091 | barasertib 0.021

CASP7 isoform 3 (UniProt P55210)
inactive: ibrutinib -0.005 | [8] -0.003 | [1] 0.035 | Nexturastat A 0.255 | givinostat -0.005 | barasertib -0.249

CCNE1 (UniProt P24864)
inactive: ibrutinib 0.013 | [7] -0.134 | ralimetinib -0.004 | [8] 0.108 | [1] 0.251 | [5] 0.031 | [9] -0.226 | [6] 0.063 | [10] 0.024 | Nexturastat A 0.164 | vemurafenib -0.054 | [11] 0.021 | givinostat -0.009 | barasertib 0.033

CCND3 (UniProt P30281)
inactive: ibrutinib -0.063 | [7] 0.078 | ralimetinib -0.076 | [8] 0 | [1] -0.303 | [5] 0.341 | [9] -0.088 | [6] 0.046 | [10] 0.063 | Nexturastat A -0.004 | vemurafenib -0.077 | [11] -0.028 | [4] -0.062 | givinostat 0.021 | barasertib 0.079

CD276 (UniProt Q5ZPR3)
inactive: IRAK-1-4 Inhibitor I -0.193 | ibrutinib 0.048 | pinometostat 0.013 | [12] -0.256 | barasertib 0.054

Remaining list, next part.

CD37 (UniProt P11049)
inactive: [7] 0.024 | [2] -0.049 | [9] -0.003 | [10] 0.01 | vemurafenib 0.087 | [11] -0.029

CD33 (UniProt P20138)
inactive: ralimetinib -0.032 | [8] -0.008 | [1] 0.079 | [5] 0.155 | [9] -0.034 | [3] 0.09 | [6] -0.095 | [10] -0.057 | Nexturastat A 0.138 | vemurafenib -0.1 | [11] -0.05 | givinostat 0.003

CD46 (UniProt P15529)
inactive: ibrutinib 0.134 | [3] -0.031 | vemurafenib -0.056 | barasertib 0.046

CBFA2T2 isoform 4 (UniProt O43439)
inactive: ibrutinib -0.359 | [1] 0.185 | givinostat 0.049 | barasertib 0.395

CBX3 (UniProt B8ZZ43)
inactive: ibrutinib -0.164 | barasertib 0.049

CCT6B isoform 3 (UniProt Q92526)
inactive: IRAK-1-4 Inhibitor I 0.388 | [7] 0.014 | [1] 0.152 | pinometostat 0.125 | [9] 0.21 | [3] -0.238 | [10] 0 | [12] -0.378 | vemurafenib 0.14 | [11] 0.061 | givinostat 0.414

CCDC102A (UniProt Q96A19)
inactive: [7] -0.027 | [8] 0.025 | [1] 0.264 | [10] 0.005 | Nexturastat A 0.075 | vemurafenib -0.056 | [11] 0.124 | givinostat 0.002

CASK (UniProt O14936)
inactive: IRAK-1-4 Inhibitor I 0.036 | [1] 0.177 | pinometostat 0.081 | [12] -0.091 | givinostat -0.06
active: [7] -0.483

CCDC187, A0A1W2PQX5
inactive: [7] -0.14 | ralimetinib -0.237 | [8] 0.201 | [5] 0.001 | [6] -0.105 | Nexturastat A 0.003

CCNL1 (UniProt Q9UK58)
inactive: [1] -0.188 | [4] -0.317 | givinostat 0.156

CD109 (UniProt Q6YHK3)
inactive: vemurafenib -0.058

CBFB (UniProt Q13951)
inactive: ibrutinib -0.009 | [7] -0.038 | ralimetinib 0.179 | [1] -0.222 | [5] 0.097 | [2] -0.037 | [9] -0.008 | [6] -0.032 | vemurafenib 0.111 | [4] -0.011 | givinostat 0.089 | barasertib 0.017

CASP9 (UniProt P55211)
inactive: IRAK-1-4 Inhibitor I 0.03 | [7] -0.096 | ralimetinib 0.008 | [8] -0.043 | [5] 0.053 | pinometostat 0.03 | [9] -0.206 | [3] 0.103 | [6] -0.091 | [10] 0.032 | [12] 0.021 | Nexturastat A 0.045 | vemurafenib 0.107 | [11] 0.111

CBX8 (UniProt Q9HC52)
inactive: ralimetinib -0.059 | [5] 0.035 | [6] 0.04

CCNL2 (UniProt Q96S94)
inactive: [8] -0.16 | [2] -0.278 | [3] 0.053 | Nexturastat A -0.02

CD9 (UniProt P21926)
inactive: IRAK-1-4 Inhibitor I -0.072 | [7] 0 | [8] 0.059 | pinometostat 0.102 | [9] 0.12 | [3] -0.677 | [12] -0.182 | Nexturastat A 0.034

CD44 (UniProt P16070)
inactive: [7] 0.05 | [9] 0.003 | [3] -0.108 | [10] 0.006 | vemurafenib -0.128 | [11] 0.057

CCNE2 (UniProt O96020)
inactive: IRAK-1-4 Inhibitor I -0.284 | [1] 0.008 | pinometostat 0.064 | [12] 0.101 | givinostat 0.094

CDC27 (UniProt G5EA36)
inactive: ralimetinib 0.142 | [8] 0.115 | [1] -0.025 | [5] 0.399 | [9] -0.135 | [6] 0.119 | [10] 0.156 | Nexturastat A 0.165 | [11] 0.17 | givinostat -0.025

CDC37 (UniProt K7EKQ2)
inactive: ibrutinib 0.284 | [8] -0.256 | [3] 0.247 | Nexturastat A -0.21 | barasertib 0.026

CCNDBP1 (UniProt O95273)
inactive: ibrutinib -0.184 | [7] 0.071 | ralimetinib 0.168 | [1] -0.077 | [5] -0.027 | [9] -0.166 | [3] -0.104 | [6] 0.027 | vemurafenib -0.074 | [4] -0.091 | givinostat -0.046 | barasertib 0.088

CCDC28B (UniProt Q9BUN5)
inactive: ibrutinib -0.067 | [7] -0.118 | [1] -0.012 | [9] -0.029 | [3] 0.076 | [10] -0.039 | vemurafenib -0.061 | [11] -0.084 | [4] -0.119 | givinostat 0.068 | barasertib -0.064

CDADC1 (UniProt Q9BWV3)
inactive: IRAK-1-4 Inhibitor I -0.083 | pinometostat -0.125 | [12] 0.146 | vemurafenib -0.154

CBLL1 (UniProt Q75N03)
inactive: IRAK-1-4 Inhibitor I 0.138 | [7] 0.08 | ralimetinib 0.061 | [1] 0.024 | [5] 0.023 | pinometostat -0.037 | [2] 0.525 | [9] 0.003 | [3] -0.154 | [6] -0.013 | [10] -0.038 | [12] -0.037 | vemurafenib -0.241 | [11] -0.086 | givinostat 0.067
